Measured values reported in PubChem BioAssay AID504467 (National Center for Advancing Translational Sciences (NCATS), 2011).
The campaign covered roughly 330,000 compounds. About 7,700 (2.3%) were called active. This list was built around the results that the source calls inconclusive (neither active nor inactive); the mix of calls is not that of the screen. The call rests on the fitted dose curve; in most records, active means well fitted inhibition curve with a large enough effect; inconclusive means small, poorly fitted or top-dose-only effect, or effect the other way; inactive means flat fitted curve, though single readings scatter. A potency beside an inconclusive call is a rough fit, not a confirmed value.

Experiment: qHTS screen for small molecules that inhibit ELG1-dependent DNA repair in human embryonic kidney (HEK293T) cells expressing luciferase-tagged ELG1; further: nearly all actives have a fitted effect of over 55% in size
Conditions: HEK293T ELG1-luciferase reporter, luminescence, 16 h, DNA damage induced by 5-fluorouridine; series mostly up to 46.1 µM
In short: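 Cells (2,000 per well) received 5-fluorouridine plus test compound or DMSO and were incubated 16 hr at 37 °C, 5% CO2. Luciferase activity was read by luminescence 30 min after ONE-Glo addition; signal suppression marked inhibition of damage-induced ELG1 function.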
Potency means the concentration at half of the fitted maximal effect.

Structure (SMILES)	Potency
Cc1nc(N)sc1-c1csc(N(C)c2ccc(O)cc2)n1	inconclusive: 8.91 µM [activator, partial curve]
COc1ccc(CNC(=O)c2cc(-c3ccccc3OC)on2)cc1	inactive
COc1ccc(S(=O)(=O)N2CC(C)N(C(=O)N(C)C)C2C)cc1 (stereo not given)	inactive
COc1cc(NC(=O)CN2CCC(C)CC2)c(C)cc1[N+](=O)[O-]	inconclusive: 20.6 µM [activator, single point]
COc1ccc(N(C)S(=O)(=O)c2cccc(C(=O)NC3=NCCS3)c2)cc1	inconclusive: 13 µM [inhibitor, single point]
Cc1nc2ccc(NC(=S)NC3CC3)cc2nc1C	inconclusive: 29.1 µM [activator, single point]
COc1ccc(C(=O)Cn2cnc3ccccc3c2=O)c(OC)c1	inactive
O=C1NC(=O)/C(=C/c2ccccn2)S1	inconclusive: 18.3 µM [activator, single point]
NS(=O)(=O)c1ccc(Sc2ccc3c(c2)CCC3)nc1	inactive
O=C(c1nc2ccc(Cl)cn2c1CNCC[C@@H]1C[C@@H]2C=C[C@H]1C2)N1CCCCCCC1	inconclusive: 23.1 µM [inhibitor, single point]
Cc1ccc(CN(C)C(=O)c2ccc(S(=O)(=O)N3CCCCCC3)cc2)o1	inconclusive: 18.3 µM [inhibitor, single point]
CC(=O)/C(C#N)=C1\NC(=O)C(Cc2ccc(C)c(C)c2)S1 (stereo not given)	inconclusive: 29.1 µM [activator, single point]
O=C(CCn1c(=S)oc2ccccc21)Nc1ccc(F)cc1	inconclusive: 29.1 µM [activator, single point]
COc1ccc(C(=O)NN)cc1	inconclusive: 23.1 µM [activator, partial curve]
CCCCCc1c(C)nc(Nc2ccc(F)cc2)[nH]c1=O	inconclusive: 20.6 µM [inhibitor, single point]
Cn1c(-c2ccc(Br)o2)nc2ccccc21	inconclusive: 3.26 µM [activator, full curve]
CCOc1ccc2oc(=O)cc(CN3CCN(Cc4ccccc4)CC3)c2c1	inconclusive: 29.1 µM [inhibitor, single point]
Cc1nc(-c2ccc(F)cc2)c(CC(=O)N2CCN(S(=O)(=O)c3cccc([N+](=O)[O-])c3)CC2)s1	inconclusive: 20.6 µM [inhibitor, single point]
Cc1ccc(-n2nc3c(=O)n(CC(=O)NCCc4ccc(Cl)cc4)nc(C)c3c2C)cc1	inactive
Cc1nc2c(sc3nc(N4CCOCC4)c4c(c32)CC(C)(C)OC4)c(-c2ccccc2)c1C(=O)O	active: 3.66 µM

Looked up one by one from the list above:
Structure (SMILES)	Potency
CCOc1ccc2oc(=O)cc(CN3CCN(Cc4ccccc4)CC3)c2c1	inconclusive: 29.1 µM [inhibitor, single point]
Cc1nc(-c2ccc(F)cc2)c(CC(=O)N2CCN(S(=O)(=O)c3cccc([N+](=O)[O-])c3)CC2)s1	inconclusive: 20.6 µM [inhibitor, single point]
